The target of experiment [1] is T1, wild-type α-COP (α-COP-FLAG), transfected in HEK293T (mouse) (UniProt Q8CIE6).
T1 sequence: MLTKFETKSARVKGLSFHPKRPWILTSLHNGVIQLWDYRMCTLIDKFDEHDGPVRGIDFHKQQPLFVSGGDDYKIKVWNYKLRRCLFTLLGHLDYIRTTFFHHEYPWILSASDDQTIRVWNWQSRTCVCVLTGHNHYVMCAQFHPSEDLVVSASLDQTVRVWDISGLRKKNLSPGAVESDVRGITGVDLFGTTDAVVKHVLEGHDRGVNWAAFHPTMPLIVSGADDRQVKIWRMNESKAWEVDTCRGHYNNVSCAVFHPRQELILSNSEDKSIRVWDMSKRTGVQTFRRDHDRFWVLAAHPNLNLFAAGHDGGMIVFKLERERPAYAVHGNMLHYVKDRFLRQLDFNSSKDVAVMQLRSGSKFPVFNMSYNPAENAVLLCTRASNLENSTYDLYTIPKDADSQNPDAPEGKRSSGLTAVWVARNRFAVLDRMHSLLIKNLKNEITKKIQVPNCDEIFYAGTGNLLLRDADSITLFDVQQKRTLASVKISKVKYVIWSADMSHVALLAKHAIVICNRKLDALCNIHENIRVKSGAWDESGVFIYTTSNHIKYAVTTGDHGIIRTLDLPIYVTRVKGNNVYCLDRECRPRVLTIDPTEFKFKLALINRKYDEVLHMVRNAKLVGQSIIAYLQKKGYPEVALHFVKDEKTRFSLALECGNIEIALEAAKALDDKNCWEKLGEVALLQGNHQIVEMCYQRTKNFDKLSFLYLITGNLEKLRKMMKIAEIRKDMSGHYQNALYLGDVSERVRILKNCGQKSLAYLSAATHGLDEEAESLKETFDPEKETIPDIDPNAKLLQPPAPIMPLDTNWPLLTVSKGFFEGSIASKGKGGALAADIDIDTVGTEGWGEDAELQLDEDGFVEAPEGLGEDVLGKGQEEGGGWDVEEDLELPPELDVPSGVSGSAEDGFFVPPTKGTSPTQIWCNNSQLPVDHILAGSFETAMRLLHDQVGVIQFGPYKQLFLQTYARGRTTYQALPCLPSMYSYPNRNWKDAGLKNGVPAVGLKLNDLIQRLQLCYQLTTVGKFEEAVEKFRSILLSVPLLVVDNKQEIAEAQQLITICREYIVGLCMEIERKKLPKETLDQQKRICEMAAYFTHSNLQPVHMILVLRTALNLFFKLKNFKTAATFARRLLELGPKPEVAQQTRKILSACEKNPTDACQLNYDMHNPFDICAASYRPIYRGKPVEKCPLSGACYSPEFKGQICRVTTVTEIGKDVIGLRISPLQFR
Put plainly: co-IP.

By UniProt entry, the sequences of proteins in these tests, tags left out.
UniProt Q64310: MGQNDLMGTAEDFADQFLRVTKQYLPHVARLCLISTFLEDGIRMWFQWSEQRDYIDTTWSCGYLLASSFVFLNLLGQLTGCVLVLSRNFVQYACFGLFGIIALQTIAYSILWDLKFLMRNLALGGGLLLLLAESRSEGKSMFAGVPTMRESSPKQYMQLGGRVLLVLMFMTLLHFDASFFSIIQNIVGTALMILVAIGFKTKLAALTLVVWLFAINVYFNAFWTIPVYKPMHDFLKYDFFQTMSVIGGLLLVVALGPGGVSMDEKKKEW

For experiment [2], the target named is T2, α-COP variant E241K (α-COP-FLAG), transfected in HEK293T (mouse) (UniProt Q8CIE6).
T2 sequence: T1 sequence with E241K
Put plainly: co-IP.

Positions count from the first letter of the chain named. No constants are given. Whether binding was seen depends on the method and setting. In cells and extracts the contact can be indirect. Some results given as binding are weak or reduced against the parent protein; the word gives no strength. Tags and fused reporters may be left off the sequences shown.

With “Surf4 (wild type), transfected in HEK293T (from UniProt Q64310 1-269)”, the binding entry in experiment [1] and in experiment [2] was “binds” throughout.

For the origin of these results see paper doi:10.1101/2020.05.20.107664.
